According to patent US20160368879A1, “PHOTOACID GENERATOR, AND RESIN COMPOSITION FOR PHOTOLITHOGRAPHY” (SAN-APRO LTD., priority 2013, published 2016):

Assay: Resist curing properties: lowest exposure quantity of a phenol resin/melamine negative resist film
Details: for Resist curing properties: 1 part photoacid generator in phenol resin/CYMEL 300 resist, film about 3 μm, PEB 10 minutes 120° C., 0.5% potassium hydroxide development; for Lowest exposure quantity: lowest exposure (365 nm) giving change in film thickness before and after development within 10%
Description: A resin solution of 75 parts of a phenol resin (“PHENOLITE TD 431” available from DIC Corporation), 25 parts of a melamine curing agent (“CYMEL 300” available from MITSUI CYANAMID Co., Ltd.), 1 part of a synthesized photoacid generator and 200 parts of propylene glycol monomethyl ether acetate (hereinafter, abbreviated as PGMEA) was applied on a glass substrate of 10 cm square under a condition of 10 seconds at 1000 rpm using a spin coater. Then, the applied film was dried under vacuum for 5 minutes at 25° C., after which the film was dried for 3 minutes on an 80° C. hot plate to form a resist film with a film thickness of about 3 μm. The whole face of this resist film was exposed with a prescribed dose of ultraviolet light having a wavelength limited by the L-34 filter (a filter cutting light with a wavelength less than 340 nm, available from Kenko Optical Co., Ltd.) using an ultraviolet irradiation device (HMW-661F-01 available from ORC MANUFACTURING CO., LTD.). In this connection, a wavelength of 365 nm was measured for the integrated exposure quantity. Then, the film was subjected to post exposure baking (PEB) for 10 minutes with a 120° C. fair wind dryer, after which the film was immersed for 30 seconds in a 0.5% potassium hydroxide solution to be subjected to development, washed immediately with water and dried.
The film thickness of this resist film was measured using a shape measuring microscope (super-depth shape measuring microscope VK-8550, available from KEYENCE CORPORATION).
In this context, the resist curing properties were evaluated according to the following criteria on the basis of the lowest exposure quantity with which a change in film thickness of the resist film before and after development of within 10% was attained.
◯: The lowest exposure quantity is 250 mJ/cm^2 or less. Δ: The lowest exposure quantity is greater than 250 mJ/cm^2 and 500 mJ/cm^2 or less. x: The lowest exposure quantity is greater than 500 mJ/cm^2.

Row | Compound | Resist curing properties | Lowest exposure quantity [mJ/cm^2]
1 | CC(C)Oc1ccc2c3c(cccc13)C(=O)N(OS(=O)(=O)c1c(F)c(F)c(F)c(F)c1F)C2=O [Example A-21, 4-isopropoxy-1,8-naphthalimide pentafluorobenzenesulfonate] | ∘ | 140
2 | O=C1c2cccc3c(Br)ccc(c23)C(=O)N1OS(=O)(=O)C(F)(F)F [Example A-20, 4-bromo-1,8-naphthalimide trifluoromethanesulfonate] | ∘ | 90
3 | O=C(Oc1cc2c3c(cccc3c1)C(=O)N(OS(=O)(=O)c1c(F)c(F)c(F)c(F)c1F)C2=O)c1c(F)c(F)c(F)c(F)c1F [Example A-32, 3-pentafluorobenzoyloxy-1,8-naphthalimide pentafluorobenzenesulfonate] | ∘ | 90
4 | O=C1c2cccc3c(Cl)ccc(c23)C(=O)N1OS(=O)(=O)C(F)(F)F [Example A-19, 4-chloro-1,8-naphthalimide trifluoromethanesulfonate] | ∘ | 85
5 | COc1cc2c3c(cccc3c1)C(=O)N(OS(=O)(=O)c1c(F)c(F)c(F)c(F)c1F)C2=O [Example A-28, 3-methoxy-1,8-naphthalimide pentafluorobenzenesulfonate] | ∘ | 140
